According to patent publication US20260041674A1, “METHODS AND COMPOSITIONS FOR MODULATING THE ACTIVITY OF A DIMERIZING AGENT REGULATED IMMUNOMODULATORY COMPLEX” (Seattle Children’s Hospital d/b/a Seattle Children’s …, priority 2021, published 2026):
For at least one compound, name, drawing or mass did not settle the structure. Some of these results come from one statement about several compounds together.

Key:
[1] = tested on: AML cell line MV4-11 (CD33+); experiment: MV4-11 AML xenograft, tumor progression by bioluminescence; assay type: in vivo, NSG mice
Raji.CD33 cells = experiment: Raji.CD33 xenograft, tumor progression by bioluminescence; assay type: in vivo, NSG mice; settings: rapamycin alone

CO[C@H]1C[C@@H]2CC[C@@H](C)[C@@](O)(O2)C(=O)C(=O)N2CCCC[C@H]2C(=O)O[C@H]([C@H](C)C[C@@H]2CC[C@@H](O)[C@H](OC)C2)CC(=O)[C@H](C)/C=C(\C)[C@@H](O)[C@@H](OC)C(=O)[C@H](C)C[C@H](C)/C=C/C=C/C=C/1C [Rapamycin, rapamycin]
tumor growth ([1]; rapamycin 0.01 mg/kg IP daily but not DARIC33 T cells): rapid tumor growth | tumor growth rate ([1]; rapamycin alone): 0.26-0.27 log[Flux]/day | tumor growth (bioluminescence) (Raji.CD33 cells): rapid increase in tumor-expressed bioluminescence
